According to PubChem BioAssay AID493014 (National Center for Advancing Translational Sciences (NCATS), 2011):
Screen size: about 340,000 compounds; about 170 (0.05%) were called active. This list was built around the results that the source calls inconclusive (neither active nor inactive); the mix of calls is not that of the screen. The call rests on the fitted dose curve; in most records, active means well fitted inhibition curve with a large enough effect in the signal ratio, with a control signal flat (not every such curve was filed as active); inconclusive means small, poorly fitted or top-dose-only effect, or effect the other way, or a change in a side signal; inactive means flat fitted curve, though single readings scatter; the % refers to the signal ratio. Potencies of inconclusive entries are doubtful fits and often do not repeat.

experiment: qHTS Assay to Find Inhibitors of Chronic Active B-Cell Receptor Signaling; conditions: ABC-DLBCL IkBa-CBG/CBR reporter, luminescence ratio (green luciferase fused to IkBa over red control in TMD8 lymphoma cells), 4 h; activity change, negative = inhibition: at 46.1 µM (top of the series) unless noted;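 on activity change, negative = inhibition: plate controls were basal doxycycline-induced cells for no effect and cells given 10 µM MG132 for full effect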
Method in brief: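 TMD8 human ABC-DLBCL cells with doxycycline-inducible IκBα–green luciferase fusion and unfused red luciferase, in 0.5% FBS medium; compounds up to 46 uM, 4 h at 37C. Green/red luminescence ratio, filter-overlap corrected, fitted to concentration-response curves.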
Potency means the concentration at half of the fitted maximal effect.

Row | SMILES | activity change, negative = inhibition | Potency
1 | CC(C)(C)NC(=O)C(=O)NN=C1CCCCCC1 | inconclusive: 2.96% | –
2 | COc1ccc(CNC(=O)c2ccc(C(C)C)cc2)cc1 | inactive: -2% | –
3 | O=C(Nc1nccs1)c1cc2c(s1)-c1ccccc1OC2 | inconclusive: -25.7% | –
4 | COC(=O)c1ccccc1NC(=O)CSc1nc2cccnc2n1C | – | inconclusive: 7.94 µM [falling, partial curve, poor fit]
5 | CC(=O)N1CCN(C(=O)c2cccc(S(=O)(=O)N3CCN(c4ccc(F)cc4)CC3)c2)CC1 | inactive: 12.5% | –
6 | CC[C@@H](C)[C@H](NC(=O)CCc1c(C)c2cc3c4c(oc3c(C)c2oc1=O)CCCC4)C(=O)O | – | inconclusive: 17.8 µM [falling, partial curve]
7 | CCOc1cc(CNCCO)cc(Br)c1OCc1ccc(Cl)cc1 | inconclusive: 26.4% | –
8 | CCOC(=O)c1ccc(NC(=O)C(=O)NCC2CCCO2)cc1 (centres undefined) | – | inconclusive: 22.4 µM [falling, partial curve, poor fit]
9 | COc1ccc(-c2cc(N)n(S(=O)(=O)Cc3ccccc3)n2)c(OC)c1 | inconclusive: 8.61% | –
10 | COc1ccc(NC(=O)CN(C)Cc2cccs2)cc1Cl | inconclusive: 13.6% | –
11 | COc1ccc(S(=O)(=O)NCCCCCC(=O)O)cc1C(=O)O | inconclusive: 0.176% | –
12 | NC(=O)C1CCN(C(=O)c2cc3n(n2)C(C(F)(F)F)CC(c2ccco2)N3)CC1 (centres undefined) | inactive: 2.12% | –
13 | Cc1cc(N/N=C/c2ccccc2)nc(N2CCOCC2)n1 | – | inconclusive: 22.4 µM [falling, single point]
14 | CCCCn1nc(NC(=O)COC)c2cc3ccc(C)cc3nc21 | inconclusive: 3.34% | –
15 | COc1cc(C(=O)Nc2ccc3oc(-c4cccnc4)nc3c2)cc(OC)c1OC | inconclusive: -0.268% | –
16 | COc1cc2c(cc1NC(=O)COCC(=O)O)oc1ccccc12 | inconclusive: -9.26% | –
17 | Cc1ccc(NC(=O)c2ccc(S(=O)(=O)N3CCOCC3)cc2)c(C)c1 | inconclusive: -4.16% | –
18 | C/C(=N\NC(=O)c1c(Cl)cnn1C)c1ccc(NC(=O)c2ccncc2)cc1 | – | inconclusive: 18.4 µM [falling, single point]
19 | Cc1ccc(Nc2ncnc3sc(C)c(C)c23)cc1C | inconclusive: 0.895% | –
20 | Cc1csc2c(NC3CCN(Cc4ccccc4)CC3)ncnc12 | inactive: 0.75% | –
21 | O=C(COc1cccc2c1CCN(Cc1ccc(Br)cc1)C2=O)N1CCOCC1 | – | inconclusive: 3.16 µM [falling, partial curve, poor fit]

Row | SMILES | activity change, negative = inhibition | Potency
22 | N/C(=N\C(=S)Nc1ccccc1)c1ccccc1 | inconclusive: -13.2% | –
23 | COCCNc1c(-c2ccc(O)cc2)nc2ccc(Cl)cn12 | inconclusive: -15.4% | –
24 | O=C(CSc1nn(-c2ccccc2)c(=S)s1)Nn1cnnc1 | inactive: -2.24% | –
25 | CC(=O)c1ccc(NC(=O)/C(=C\c2ccccc2)NC(=O)c2ccco2)cc1 | inactive: -4.46% | –
26 | COc1ccc(NC(=O)c2c(NCc3ccc(OC)c(OC)c3OC)sc3c2CCC3)c(OC)c1 | inactive: -0.672% | –
27 | O=C(NCc1ccco1)c1ccc2ccccc2c1 | – | inconclusive: 13 µM [falling, partial curve]
28 | COC(=O)C1CC(c2c(OC)cc(OC)cc2OC)=NO1 (centres undefined) | – | inconclusive: 3.26 µM [falling, single point]
29 | CCc1nnc(NC(=O)CSc2nnc(-c3c[nH]c4ccccc34)n2CC)s1 | inconclusive: -4.08% | –
30 | O=C(O)CSCC(=O)Nc1cccc(C(F)(F)F)c1 | inconclusive: 25.4% | –
31 | S=C(Nc1cccc(Cl)c1)NC1CCCCC1 | inconclusive: -4.55% | –
32 | CCCCN(Cc1nc2ccccc2c(=O)[nH]1)C(=O)CN1C(=O)NC2(CCCCC2)C1=O | inconclusive: 5.52% | –
33 | COc1cc(Br)c(/C=C/c2ccc3cccc(O)c3n2)cc1OC | inconclusive: -9.89% | –
34 | CCCCN(C)CCNC(=O)c1ccc(Cn2c(=S)[nH]c3ccc(Br)cc3c2=O)cc1 | – | inconclusive: 15.8 µM [falling, partial curve]
35 | CCOC(=O)c1cc(-c2ccccc2)nc2c1c(C)nn2-c1ccccn1 | inconclusive: 20.8% | –
36 | CC(=O)O[C@@H]1C[C@H]2C(C)(C)C(=O)C=C[C@]2(C)[C@H]2CC[C@@]3(C)[C@H](c4ccoc4)OC(=O)[C@H]4O[C@]43[C@@]21C | inactive: -20.5% | –
37 | OCCNc1nc(Nc2ccccc2)nc(Nc2ccccc2)n1 | inactive: -2.81% | –
38 | CCOC(=O)c1ccc(NCc2ccc(N(C)C)cc2)cc1 | inconclusive: -6.43% | –
39 | Cn1cccc1/C=N/n1cnnc1 | inconclusive: 2.98% | –
40 | COCCSc1ccccc1C(=O)Nc1ccc(Cl)cc1 | inactive: -0.586% | –
41 | COc1ccc(Nc2nc3ccc(C)cn3c(=O)c2/C=N/O)cc1 | inconclusive: 5.99% | –
42 | O=C(Cc1coc2ccc3ccccc3c12)Nc1nnc(C2CC2)s1 | inconclusive: -3.22% | –

Some of these compounds in order of length of the SMILES, ascending.
Row | SMILES | activity change, negative = inhibition | Potency
39 | Cn1cccc1/C=N/n1cnnc1 | inconclusive: 2.98% | –
31 | S=C(Nc1cccc(Cl)c1)NC1CCCCC1 | inconclusive: -4.55% | –
27 | O=C(NCc1ccco1)c1ccc2ccccc2c1 | – | inconclusive: 13 µM [falling, partial curve]
22 | N/C(=N\C(=S)Nc1ccccc1)c1ccccc1 | inconclusive: -13.2% | –
40 | COCCSc1ccccc1C(=O)Nc1ccc(Cl)cc1 | inactive: -0.586% | –
19 | Cc1ccc(Nc2ncnc3sc(C)c(C)c23)cc1C | inconclusive: 0.895% | –
30 | O=C(O)CSCC(=O)Nc1cccc(C(F)(F)F)c1 | inconclusive: 25.4% | –
37 | OCCNc1nc(Nc2ccccc2)nc(Nc2ccccc2)n1 | inactive: -2.81% | –
28 | COC(=O)C1CC(c2c(OC)cc(OC)cc2OC)=NO1 (centres undefined) | – | inconclusive: 3.26 µM [falling, single point]
20 | Cc1csc2c(NC3CCN(Cc4ccccc4)CC3)ncnc12 | inactive: 0.75% | –
24 | O=C(CSc1nn(-c2ccccc2)c(=S)s1)Nn1cnnc1 | inactive: -2.24% | –
41 | COc1ccc(Nc2nc3ccc(C)cn3c(=O)c2/C=N/O)cc1 | inconclusive: 5.99% | –
35 | CCOC(=O)c1cc(-c2ccccc2)nc2c1c(C)nn2-c1ccccn1 | inconclusive: 20.8% | –
21 | O=C(COc1cccc2c1CCN(Cc1ccc(Br)cc1)C2=O)N1CCOCC1 | – | inconclusive: 3.16 µM [falling, partial curve, poor fit]
29 | CCc1nnc(NC(=O)CSc2nnc(-c3c[nH]c4ccccc34)n2CC)s1 | inconclusive: -4.08% | –
25 | CC(=O)c1ccc(NC(=O)/C(=C\c2ccccc2)NC(=O)c2ccco2)cc1 | inactive: -4.46% | –
34 | CCCCN(C)CCNC(=O)c1ccc(Cn2c(=S)[nH]c3ccc(Br)cc3c2=O)cc1 | – | inconclusive: 15.8 µM [falling, partial curve]
26 | COc1ccc(NC(=O)c2c(NCc3ccc(OC)c(OC)c3OC)sc3c2CCC3)c(OC)c1 | inactive: -0.672% | –
32 | CCCCN(Cc1nc2ccccc2c(=O)[nH]1)C(=O)CN1C(=O)NC2(CCCCC2)C1=O | inconclusive: 5.52% | –
36 | CC(=O)O[C@@H]1C[C@H]2C(C)(C)C(=O)C=C[C@]2(C)[C@H]2CC[C@@]3(C)[C@H](c4ccoc4)OC(=O)[C@H]4O[C@]43[C@@]21C | inactive: -20.5% | –

Next records:

Row | SMILES | activity change, negative = inhibition | Potency
43 | CCOC(=O)C1NN=C(C(=O)c2ccccc2)C1c1ccc(OC)cc1 (centres undefined) | inconclusive: -30.5% | –
44 | Cc1nn(CC(=O)NCCc2ccccc2)c(=O)c2nn(-c3ccccc3)c(C)c12 | inconclusive: 9.56% | –
45 | COc1ccc(-c2nnc(SCC(=O)NCc3cccs3)n2C)cc1 | inconclusive: 11.7% | –
46 | CCc1nc2ccc(C(=O)N3CCN(c4cc(C)ccc4C)CC3)cc2nc1CC | inconclusive: 21.7% | –
47 | COc1ccc(Cn2c(-c3ccc(OC)cc3)n[nH]c2=S)cc1 | inactive: -0.139% | –
48 | N#Cc1c(N)n(CCOC(=O)c2cccc([N+](=O)[O-])c2)c2nc3ccccc3nc12 | inactive: 0.799% | –
49 | Cc1cc(C)c(C#N)c(SCC(=O)CC(=O)OC(C)C)n1 | inactive: 3.3% | –
50 | CC(=O)NCCNC(=O)c1ccc(Sc2ccccc2)c([N+](=O)[O-])c1 | inconclusive: -12% | –
51 | O=[N+]([O-])c1ccc2nc(CCCO)[nH]c2c1 | inconclusive: 0.684% | –
52 | CC(=O)C1C(=O)CC(C)(O)C(C(C)=O)C1c1ccccc1 (centres undefined) | inactive: 4.42% | –
53 | Cc1nc2c(-c3ccc(F)cc3)c(C)nn2c(N2CCOCC2)c1C | inconclusive: -2.26% | –
54 | CCOC(=O)CSc1nnc(CSc2nc3ccccc3c(=O)[nH]2)n1-c1ccccc1 | inconclusive: 7.74% | –
55 | Cc1onc(-c2ccccc2)c1CNC(=O)Nc1cccc(Cl)c1 | inactive: 6.05% | –
56 | CC1=C(C#N)C(c2cccnc2)C2=C(CC(c3ccc(Cl)cc3)CC2=O)N1 (centres undefined) | inconclusive: -10.5% | –
57 | Cc1ccc(S(=O)(=O)c2cc3ccc(O)cc3oc2=O)cc1C | inactive: 3.72% | –
58 | NC(=O)N/N=C/c1cc(Br)ccc1OCC(=O)NCc1ccccc1 | inconclusive: 10.3% | –
59 | O=C(CSc1nnc(-c2c[nH]c3ccccc23)o1)N(Cc1ccccc1)c1ccc(F)cc1 | inactive: 24.1% | –
60 | Cc1onc(-c2ccccc2)c1C(=O)NC(C)C | inconclusive: 18% | –
61 | CN(C)S(=O)(=O)N1CCC(Oc2ccc(C(=O)NCC(C)(C)CO)cc2)CC1 | – | inconclusive: 25.1 µM [rising, partial curve, poor fit]
62 | COc1cccc(/C=C2\SC(=S)N(CCC(=O)NCCc3ccc(O)cc3)C2=O)c1 | – | inconclusive: 31.6 µM [rising, single point]
63 | Cc1cccc(-n2ncc(Cl)c(Cl)c2=O)c1 | – | inconclusive: 11.2 µM [falling, partial curve, poor fit]

Row | SMILES | activity change, negative = inhibition | Potency
64 | CCc1nc2sc3c(c2c(=O)n1NC(=O)CCl)CCCC3 | – | inconclusive: 32.6 µM [falling, single point]
65 | CCn1cc(C(=O)Nc2ccc3c(c2)OCCO3)c2cc(OC)c(OC)cc2c1=O | – | inconclusive: 15.8 µM [falling, single point]
66 | CCOC(=O)N1CCC(NC(=O)C2CCN(S(=O)(=O)N3CCCC3)CC2)CC1 | inconclusive: 16% | –
67 | CCCCc1ccc(-c2csc(/C(C#N)=C\c3ccco3)n2)cc1 | inconclusive: 6.99% | –
68 | C[C@H](CO)NC(=O)[C@@H]1C[C@H]1[C@@H](NP(=O)(c1ccccc1)c1ccccc1)c1ccccc1 | inconclusive: 4.29% | –
69 | CC(C)CC(=O)Nc1nnc(-c2ccco2)s1 | – | inconclusive: 0.411 µM [rising, full curve]
70 | CCOc1ccccc1C(=O)N/N=C/c1c[nH]c2ccccc12 | – | inconclusive: 22.4 µM [falling, partial curve, poor fit]
71 | c1ccc(-c2c[nH]c3[n+]2CCCCC3)cc1 | inactive: -2.85% | –
72 | CCCCCCC1CC(=O)NC(=O)N1 (centres undefined) | inconclusive: 0.147% | –
73 | CCCCCSc1nnc(-c2ccccc2NC(C)=O)c(=O)[nH]1 | – | inconclusive: 14.1 µM [falling, partial curve, poor fit]
74 | CCOC(=O)c1c(CN2CCN(C)CC2)n(C)c2cc(Br)c(OC)cc12 | inactive: -0.511% | –
75 | C=CCOc1c(Br)cc(CNCCCN2CCOCC2)cc1OC | inactive: -0.683% | –
76 | COc1ccc(Cl)cc1NC(=S)NNC(=O)c1cccs1 | – | inconclusive: 35.5 µM [falling, single point]
77 | COc1cc(CN(C2CC2)S(=O)(=O)c2ccccc2Br)cc(OC)c1 | inconclusive: -2.94% | –
78 | Cc1ccc(C)c(OCC(=O)Nc2ccc(S(=O)(=O)N3CCN(C)CC3)cc2)c1 | inconclusive: 1.33% | –
79 | Cc1cc(Cl)cc(C)c1OCC(=O)N1CCN(c2ncccn2)CC1 | inconclusive: -0.126% | –
80 | C#CCCCCCCC#CCN(C)C | inconclusive: 2.43% | –
81 | O=C(CCC(=O)NNC(=O)c1ccccc1[N+](=O)[O-])NCc1ccccc1 | inconclusive: 4.63% | –
82 | O=S(=O)(/N=C(/Nc1cccc2ccccc12)c1ccccc1)c1ccccc1 | – | inconclusive: 35.5 µM [falling, single point]
83 | CCOc1cc(C)nc(N2CCC(C(=O)Nc3ccccc3OCC)CC2)n1 | inconclusive: 1.78% | –
84 | O=C(NCCN1CCOCC1)c1cc(-c2ccc(Cl)cc2Cl)on1 | inactive: 8.77% | –
